# Test results as given in PubChem BioAssay AID2685 (National Center for Advancing Translational Sciences (NCATS), 2010).
# The whole screen tested about 320,000 compounds, of which about 2,100 (0.66%) were called active. Inconclusive means that the source gave no clear call. Such entries were picked first, then a sample of the others. The call rests on the fitted dose curve; in most records, active means well fitted inhibition curve with a large enough effect in the signal ratio, with a control signal flat (not every such curve was filed as active); inconclusive means small, poorly fitted or top-dose-only effect, or effect the other way, or a change in a side signal; inactive means flat fitted curve, though single readings scatter; the % refers to the signal ratio. Potencies of inconclusive entries are doubtful fits and often do not repeat.
# Test: qHTS Assay for Lipid Storage Modulators in Drosophila S3 Cells
# Settings: BODIPY lipid droplet fluorescence, 18-24 h, cells fed with added oleic acid; lipid storage change, negative = inhibition: at 46.1 µM (top of the series) unless noted
# Procedure, shortened: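 Drosophila S3 cells loaded with oleic acid (400 uM, as added) and compounds at several concentrations; lipid droplets imaged by 488-nm laser-scanning cytometry, 500–530 nm intensity and object ratio to cell channel. Percent activity normalized to 20 uM Triacsin C.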
# On the % scale 0 is the no-effect control and ±100 the full control effect; potency means the concentration at half of the fitted maximal effect.
SMILES,"lipid storage change, negative = inhibition",Potency
NS(=O)(=O)c1ccc(CNC(=O)COc2ccc3c4c(c(=O)oc3c2)CCCC4)cc1,inconclusive: 26.9%,–
CS(=O)(=O)N(CC(=O)NC1CCCC1)Cc1ccc(Cl)cc1,–,"inconclusive: 11.6 µM [falling, partial curve]"
CC(C)CNC(=O)CN1C(=O)NC2(CCCc3ccccc32)C1=O (centres undefined),inactive,–
COc1ccc2c(c1)CCC/C2=N\OC(=O)c1ccccc1F,inconclusive: 34.1%,–
COc1ccccc1OCCNc1cc(N2CCCCC2)ccc1[N+](=O)[O-],inactive,–
CCOC(=O)N1CCN(c2c(NCc3ccccn3)c(=O)c2=O)CC1,inconclusive: 7.26%,–
C=CCn1c(NCCO)nc2sc3c(c2c1=O)CCC3,–,"inconclusive: 16.4 µM [rising, single point]"
O=C(NCc1cccnc1)Nc1ccc(F)cc1F,–,"inconclusive: 6.51 µM [falling, single point]"
CCCCc1ccc(NC(=O)COCC)cc1,inconclusive: 39%,–
COc1ccc(NC(=O)Nc2ccc3c(c2)CCC3)cc1,–,"inconclusive: 29.1 µM [activator, single point]"
CC1CCC(NC(=O)CN2CCN(S(=O)(=O)c3cccs3)CC2)CC1 (centres undefined),inconclusive: 9.41%,–
CCN1/C(=C2\C(=O)N(c3ccccc3)N=C2C)C=Cc2cc(C)ccc21,–,"inconclusive: 0.411 µM [activator, full curve, poor fit]"
COc1ccc(N2C(=O)c3cccc4cc(Br)cc(c34)C2=O)cc1,inconclusive: -17.9%,–
CCOc1ccc(-c2nnc3sc(COc4ccccc4)nn23)cc1,inconclusive: 79.2%,–
CC1=C(SCCC#N)S/C(=C2\SC(C)=C(SCCC#N)S2)S1,inconclusive: 86.2%,–
CC(C)OCCCN(C)C1CCN(S(=O)(=O)c2csc(C(N)=O)c2)CC1,inconclusive: -15.3%,–
O=C(CCS(=O)(=O)c1ccccc1)Nc1cccc(-c2nc3ccccc3s2)c1,–,"inconclusive: 29.1 µM [falling, single point]"
CC(=O)c1ccc(OCCOc2ccc([N+](=O)[O-])cc2)cc1,–,"inconclusive: 0.58 µM [activator, partial curve, poor fit]"
CC1CC(C)CN(C(=O)c2ccc(Br)c(S(=O)(=O)N3CCOCC3)c2)C1 (centres undefined),inconclusive: 8.27%,–
Cc1ccc(OCCCn2c(=O)sc3ccccc32)cc1,inconclusive: 36%,–
COc1cc(CN2CCCC(C(=O)c3ccccc3SC)C2)cc(OC)c1 (centres undefined),–,"inconclusive: 6.51 µM [falling, single point]"
O=S(=O)(NC1CC1)c1ccccc1,inconclusive: -16.2%,–
N#CC1=C(N)SC(N)=C(C#N)C1c1ccoc1,–,"inconclusive: 29.1 µM [cytotoxic, partial curve, poor fit]"
COc1ccc(CN(CC(=O)NC2CCCC2)C(=O)c2csnn2)cc1,inconclusive: 90.9%,–
c1ccc2sc(N3CN(CCN4CCOCC4)CN(c4nc5ccccc5s4)C3)nc2c1,inconclusive: 25%,–

# A run of entries taken from the entries so far, for reference:
SMILES,"lipid storage change, negative = inhibition",Potency
COc1cc(CN2CCCC(C(=O)c3ccccc3SC)C2)cc(OC)c1 (centres undefined),–,"inconclusive: 6.51 µM [falling, single point]"
O=S(=O)(NC1CC1)c1ccccc1,inconclusive: -16.2%,–
N#CC1=C(N)SC(N)=C(C#N)C1c1ccoc1,–,"inconclusive: 29.1 µM [cytotoxic, partial curve, poor fit]"
COc1ccc(CN(CC(=O)NC2CCCC2)C(=O)c2csnn2)cc1,inconclusive: 90.9%,–

# (listing goes on)

SMILES,"lipid storage change, negative = inhibition",Potency
CC(C)n1nc(C(=O)Nc2cccc(S(=O)(=O)NCc3ccco3)c2)c2ccccc2c1=O,inactive,–
CC(C)(CNC(=O)c1ccc(-c2cccc(C(F)(F)F)c2)o1)N1CCOCC1,–,"inconclusive: 13 µM [activator, partial curve, poor fit]"
O=C(CC12CC3CC(CC(Br)(C3)C1)C2)NC1=NCCS1,–,"inconclusive: 0.0052 µM [cytotoxic, full curve, poor fit]"
CCCCCCCCCCCCCCCC(=O)NCCO,inconclusive: -26.5%,–
CC1CC(C)CN(c2oc(Cc3ccccc3)nc2C#N)C1 (centres undefined),inconclusive: -0.454%,–
NC(=O)CNC(=O)[C@@H]1CC2(CC(c3ccccc3)=NO2)CN1C(=O)c1ccc(Br)cc1 (some centres undefined),inconclusive: -11.1%,–
C[C@H](N)C(=O)N1CCC(C(=O)N[C@@H](Cc2ccccc2)C(=O)Nc2ccc(F)cc2)CC1,inconclusive: 10.8%,–
O=C(NCCc1c[nH]c2ccccc12)/C(=C\c1cccnc1)NC(=O)c1ccco1,–,"inconclusive: 1.84 µM [activator, full curve, poor fit]"
C=CCn1c(O)c2ccc(C(=O)N=NC(=O)COc3ccccc3F)cc2c1O,inconclusive,–
CCOC(=O)c1c(NC(=O)C2CCCCC2)sc2c1CCN(C(C)C)C2,–,"inconclusive: 23.1 µM [falling, partial curve, poor fit]"
Cc1ccc2nc(NCC(=O)NN)nc(-c3ccccc3)c2c1,inconclusive: 9.95%,–
O=C(N/N=C/c1cccc(Br)c1)c1ccc(Cn2cc(Br)cn2)o1,–,"inconclusive: 11.6 µM [rising, partial curve, poor fit]"
CCN(CC(=O)Nc1c(F)cccc1F)C(=O)C1(c2ccccc2)CC1,inconclusive: 28.1%,–
COC(=O)[C@H](C)NC(=O)Nc1ccccc1F,–,"inconclusive: 0.206 µM [falling, full curve]"
COc1cccc(NC(=O)CN(C)C(=O)C2=COCCO2)c1,inconclusive,–
COc1ccc(C)cc1S(=O)(=O)N1CCC(C(=O)NCCc2ccccc2)CC1,inconclusive: 21.8%,–
c1ccc(CCc2nc(-c3ccccc3)no2)cc1,inconclusive: 2.19%,–
Cc1ccc(N(C)C(=O)n2cnc3ccccc32)cc1,–,"inconclusive: 6.51 µM [cytotoxic, single point]"
O=C(NCCN1CCOCC1)c1cc(-c2ccc(Cl)s2)nc2ccccc12,inconclusive: -56.8%,–
O=C(NCCc1ccccc1)/C(=C\c1ccc([N+](=O)[O-])cc1)NC(=O)c1ccccc1,inconclusive: -19.8%,–
CC1=CCC2C(=O)N(c3ccc(OC(=O)c4ccco4)cc3)C(=O)C2C1 (centres undefined),inconclusive: -12.3%,–
CCn1c(SCC(=O)c2c(N)n(C3CC3)c(=O)[nH]c2=O)nnc1-c1ccoc1C,inconclusive: -6.62%,–
CCOCN(C(=O)Cn1c(CO)nc2ccccc21)c1c(C)cccc1CC,inconclusive: -32.4%,–
O=C(NCCCn1ccnc1)c1cc2c(s1)CCCCC2,–,"inconclusive: 0.0206 µM [activator, single point]"
